{"source": "patent US20050228019A1", "about": "“Enhancement of ampakine-Induced facilitation of synaptic responses by cholinesterase inhibitors” (priority 2004, published 2005)", "test_system": "lateral olfactory tract (LOT) evoked responses", "test": "Lateral olfactory tract (LOT) evoked responses in awake rats", "assay_type": "in vivo, Long-Evans rats", "settings": "Aricept 1.5 mg/kg ip alone", "procedure": "Chronic recording preparation: Adult male Long-Evans rats with recording and stimulating electrodes chronically implanted into different areas of the brain known to subserve memory were used. The electrodes were stereotaxically inserted under pentobarbital anesthesia (65 mg/kg), using procedures essentially as described in earlier work (Stäubli and Xu, Journal of Neuroscience 15: 2445-2452, 1995; Stäubli and Scafidi, Journal of Neuroscience 17: 4820-4828, 1997). Briefly, monopolar stimulating electrodes (125 μm) were placed into the perforant path projections to hippocampal dentate gyrus and into the lateral olfactory tract projections to olfactory cortex. Following these steps, the leads of the electrodes were connected to a headstage that is permanently affixed to the rat's skull.\nThe animals were allowed approximately 10 days for recovery before being acclimated to a chronic recording cage (30×30×58 cm) and the attachment of a recording lead to their headstage. Biphasic stimulation pulses were provided by a digital stimulator that allows precise control of current intensity and pulse duration. […] The evoked responses were monitored on a storage oscilloscope and digitized at 10 kHz. The peak amplitude, half-width and area of each response were measured on-line and stored on disk for off-line analysis. […]", "data": [{"smiles": "COc1cc2c(cc1OC)C(=O)C(CC1CCN(Cc3ccccc3)CC1)C2.Cl", "note": "(racemic) [Aricept, (±)-2,3-dihydro-5,6-dimethoxy-2-[[1-(phenylmethyl)-4-piperidinyl]methyl]-1H-inden-1-one hydrochloride, reference compound]", "values": [{"measurement": "effect on LOT responses", "result": "little to no effect"}]}]}
